Measurements: PMC4746285, “Functional Analysis of the Citrate Activator CitO from Enterococcus faecalis Implicates a Divalent Metal in Ligand Binding” (Frontiers in Microbiology, 2016)

Tests used:
[1] = system: CitO-H191A; assay type: binding; conditions: ITC, ni = no interaction
[2] = system: CitO-R97A; assay type: binding; conditions: ITC, ni = no interaction

O=C(O)CC(O)(CC(=O)O)C(=O)O [citrate]
ni^*: TΔS [1] | ΔG [1] | ΔH [1] | TΔS [2] | ΔG [2] | ΔH [2]
